Experimental data reported in publication PMC11579034.
Results are given in words; binding and its absence hold for the method and conditions named. In cells and extracts the contact can be indirect. Some binding calls cover weakened binding; strength is not graded here.

Chains of the proteins cited; added tags and fusions are not shown.
UniProt P10275: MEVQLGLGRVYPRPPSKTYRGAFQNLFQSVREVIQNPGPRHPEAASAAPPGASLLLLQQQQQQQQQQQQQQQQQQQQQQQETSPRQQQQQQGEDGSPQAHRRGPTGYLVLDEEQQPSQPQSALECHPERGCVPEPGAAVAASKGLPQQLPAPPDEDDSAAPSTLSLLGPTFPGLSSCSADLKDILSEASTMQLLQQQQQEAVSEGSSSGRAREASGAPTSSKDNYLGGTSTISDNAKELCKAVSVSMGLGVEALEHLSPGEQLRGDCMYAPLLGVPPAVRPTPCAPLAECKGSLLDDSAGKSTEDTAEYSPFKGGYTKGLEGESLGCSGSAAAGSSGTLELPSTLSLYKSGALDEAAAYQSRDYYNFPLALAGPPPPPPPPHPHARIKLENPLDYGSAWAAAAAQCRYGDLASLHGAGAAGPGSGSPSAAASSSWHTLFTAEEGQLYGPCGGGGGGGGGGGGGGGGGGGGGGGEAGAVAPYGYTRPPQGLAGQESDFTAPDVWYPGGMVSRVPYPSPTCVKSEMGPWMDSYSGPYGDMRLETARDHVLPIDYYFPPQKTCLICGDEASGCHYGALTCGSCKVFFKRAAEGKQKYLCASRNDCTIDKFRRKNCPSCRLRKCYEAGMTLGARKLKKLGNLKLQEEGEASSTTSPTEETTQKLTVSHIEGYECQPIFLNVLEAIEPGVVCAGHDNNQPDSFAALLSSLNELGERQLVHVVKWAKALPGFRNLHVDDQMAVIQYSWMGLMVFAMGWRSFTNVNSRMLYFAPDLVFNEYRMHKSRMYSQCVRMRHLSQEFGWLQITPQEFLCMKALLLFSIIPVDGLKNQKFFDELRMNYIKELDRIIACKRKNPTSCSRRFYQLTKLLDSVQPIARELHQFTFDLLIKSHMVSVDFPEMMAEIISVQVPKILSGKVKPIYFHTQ

Target: heat shock protein 90 alpha family class A member 1 (HSP90AA1), endogenous in 22Rv1 and LNCaP cells (human (endogenous in 22Rv1 and LNCaP)) (UniProt P07900)
Assay: co-IP; lysates of control or circRNF19A-490aa-overexpressing 22Rv1 and LNCaP cells immunoprecipitated with control IgG or AR or HSP90AA1 antibodies

binding: binds
Substance: androgen receptor (AR), endogenous in 22Rv1 and LNCaP cells (from UniProt P10275 1-920)
